These are yes or no findings as the source states them, for the method shown. Some results given as binding are weak or reduced against the parent protein; the word gives no strength. Where a sequence is shown, tags or fusion partners need not be part of it.
Key:
[1] = molecular target: septin 9–septin 6–septin 7–septin 2 complex (His–SEPT2/6/7/9–Strep) (UniProt P42208); assay: pull-down; His–SEPT2/6/7–Strep or His–SEPT2/6/7/9–Strep immobilised on Strep-Tactin Sepharose; His–Borg5 in septin buffer (300 mM KCl) with 1 mM DTT and 0.05% Tween 20, 4°C, 90 min; elution with 5 mM D-biotin; His blot; both purified
[2] = molecular target: T1, septin 2–septin 6–septin 7 complex (His–SEPT2/6/7–Strep) (UniProt P42208); assay: as above
T1 sequence 1: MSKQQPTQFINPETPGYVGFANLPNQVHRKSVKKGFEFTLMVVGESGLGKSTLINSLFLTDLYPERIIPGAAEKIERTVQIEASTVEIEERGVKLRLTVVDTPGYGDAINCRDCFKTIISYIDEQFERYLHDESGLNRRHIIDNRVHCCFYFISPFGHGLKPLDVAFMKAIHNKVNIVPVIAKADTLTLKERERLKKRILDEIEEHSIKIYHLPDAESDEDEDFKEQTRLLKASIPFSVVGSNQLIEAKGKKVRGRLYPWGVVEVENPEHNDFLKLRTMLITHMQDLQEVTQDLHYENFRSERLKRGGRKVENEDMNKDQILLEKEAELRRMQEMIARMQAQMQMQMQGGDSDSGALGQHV
T1 sequence 2: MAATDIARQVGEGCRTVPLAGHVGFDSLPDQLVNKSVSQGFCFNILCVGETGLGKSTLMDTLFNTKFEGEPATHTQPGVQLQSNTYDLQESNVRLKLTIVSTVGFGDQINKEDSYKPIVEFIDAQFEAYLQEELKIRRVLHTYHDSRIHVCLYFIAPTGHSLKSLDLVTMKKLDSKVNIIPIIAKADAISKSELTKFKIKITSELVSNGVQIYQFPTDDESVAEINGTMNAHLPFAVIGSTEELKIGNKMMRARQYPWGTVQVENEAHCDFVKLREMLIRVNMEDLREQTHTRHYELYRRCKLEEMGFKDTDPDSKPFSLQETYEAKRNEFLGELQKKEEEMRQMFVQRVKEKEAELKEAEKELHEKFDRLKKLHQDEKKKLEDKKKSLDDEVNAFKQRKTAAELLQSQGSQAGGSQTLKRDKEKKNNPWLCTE
T1 sequence 3: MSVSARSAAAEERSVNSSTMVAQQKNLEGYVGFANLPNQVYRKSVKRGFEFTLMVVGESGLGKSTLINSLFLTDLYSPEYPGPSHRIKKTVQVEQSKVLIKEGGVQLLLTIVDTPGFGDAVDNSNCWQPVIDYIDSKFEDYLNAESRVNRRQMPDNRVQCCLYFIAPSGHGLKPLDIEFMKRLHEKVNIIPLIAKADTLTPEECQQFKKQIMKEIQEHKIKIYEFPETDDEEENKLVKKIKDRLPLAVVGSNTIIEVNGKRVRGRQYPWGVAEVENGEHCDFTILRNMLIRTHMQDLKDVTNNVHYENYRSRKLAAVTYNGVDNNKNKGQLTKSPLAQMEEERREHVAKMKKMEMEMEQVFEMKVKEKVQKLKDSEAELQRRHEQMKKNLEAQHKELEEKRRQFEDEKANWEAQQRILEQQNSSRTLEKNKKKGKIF

Amino acid sequences for entries named in this document (tags omitted). Residues count along the entry.
UniProt P35579, residues 1339-1960: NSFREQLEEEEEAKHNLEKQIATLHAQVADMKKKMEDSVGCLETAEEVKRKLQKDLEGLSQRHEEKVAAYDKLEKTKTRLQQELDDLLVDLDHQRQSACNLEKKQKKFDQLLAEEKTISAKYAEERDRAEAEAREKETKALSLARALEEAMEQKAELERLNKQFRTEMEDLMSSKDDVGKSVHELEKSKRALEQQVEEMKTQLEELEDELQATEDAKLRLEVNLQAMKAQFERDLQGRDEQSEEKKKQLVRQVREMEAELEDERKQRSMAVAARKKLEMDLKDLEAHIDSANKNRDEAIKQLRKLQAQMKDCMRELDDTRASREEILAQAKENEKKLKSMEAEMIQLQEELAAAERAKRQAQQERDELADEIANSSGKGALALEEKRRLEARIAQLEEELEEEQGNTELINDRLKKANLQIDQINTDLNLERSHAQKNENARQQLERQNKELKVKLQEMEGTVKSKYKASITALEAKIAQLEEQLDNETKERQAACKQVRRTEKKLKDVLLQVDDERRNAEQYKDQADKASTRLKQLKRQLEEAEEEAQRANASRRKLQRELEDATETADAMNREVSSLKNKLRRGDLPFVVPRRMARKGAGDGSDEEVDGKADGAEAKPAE

[3] = molecular target: septin 9–septin 6–septin 7–septin 2 complex (His–SEPT2/6/7/9–Strep) (UniProt P42208); assay: pull-down; three-way assay: His–MyoIIA-Rod pre-incubated with His–Borg5, then bound to His–SEPT2/6/7/9–Strep immobilised on Strep-Tactin Sepharose; septin buffer (300 mM KCl), 4°C; biotin elution; His blot; four experiments; both purified
[4] = molecular target: GST-tagged rod domain of myosin IIA (GST–MyoIIA-Rod) (UniProt P35579); assay: pull-down; GST–MyoIIA-Rod immobilised on glutathione resin; recombinant proteins in equimolar ratios in septin buffer (10 mM Tris-HCl, 2 mM MgCl2, 300 mM KCl) with 1 mM DTT and 0.05% Tween 20, 4°C, 90 min; SDS elution; Coomassie gel and His blot; both purified
[5] = molecular target: GST-tagged rod domain of myosin IIA (GST–MyoIIA-Rod) (UniProt P35579); assay: pull-down; three-way assay: His–Borg5 pre-incubated with septin 9-6-7-2 complexes, then bound to GST–MyoIIA-Rod immobilised on glutathione resin; septin buffer (300 mM KCl), 4°C; Coomassie gel and His blot; two experiments; both purified

Measured: binding

B1: His–Borg5 (recombinant mouse Borg5, Cdc42EP1) (protein, UniProt Q91W92 1-409)
chain: MPGPQGGTGAPTMSLGKLSPVGWVSSSHGKRRLTADMISPPLGDFRHTMHVGRGGDVFGDTSFLSNHGGRSGNTHRSPRSFLARKLQQVRRVGVPPRRMASPAAPSPAPPPISPIIKNAISLPQLNQATYDSLVMGKLSFDSTPASSTDGHSGYGLESGFCTISRLPRVEKHSNRDRDRDPDHSQDREQSSFPSEPTPNPELRRSDSLLSFRFDLDLGPSLLSELLGVMSLSEAPAAETPVPTANPPAPAANPAPTAKPPAHAITTLDAVTSLPASAVTSLPAPAAASSPSRGHFPNGVTSVLGPAAEAKPSPVGEGPQVPSNMTFDRHGASWGASRASWGASRASRHYTEMDARRELAGVLPQVHGSWESLNEDWSTPPASVRAPVPTSVQVNAFEFADAEEDDEVKV
binds: all assays above

Reference: PMC11698036
